No constants are given. Whether binding was seen depends on the method and setting. Some entries that bind do so weakly or less than the wild type.
Molecular target: shed Muc1 having the CA6 epitope (ovarian cancer patient serum; CA15-3 standards) (human) (UniProt P15941)
Experiment: sandwich ELISA: plated DS6, biotinylated DS6 tracer, streptavidin-HRP; ovarian cancer patient serum or CA15-3 standards

Amino acid sequences for entries named in this document (tags omitted). Residues count along the entry.
UniProt P15941, residues 24-1097: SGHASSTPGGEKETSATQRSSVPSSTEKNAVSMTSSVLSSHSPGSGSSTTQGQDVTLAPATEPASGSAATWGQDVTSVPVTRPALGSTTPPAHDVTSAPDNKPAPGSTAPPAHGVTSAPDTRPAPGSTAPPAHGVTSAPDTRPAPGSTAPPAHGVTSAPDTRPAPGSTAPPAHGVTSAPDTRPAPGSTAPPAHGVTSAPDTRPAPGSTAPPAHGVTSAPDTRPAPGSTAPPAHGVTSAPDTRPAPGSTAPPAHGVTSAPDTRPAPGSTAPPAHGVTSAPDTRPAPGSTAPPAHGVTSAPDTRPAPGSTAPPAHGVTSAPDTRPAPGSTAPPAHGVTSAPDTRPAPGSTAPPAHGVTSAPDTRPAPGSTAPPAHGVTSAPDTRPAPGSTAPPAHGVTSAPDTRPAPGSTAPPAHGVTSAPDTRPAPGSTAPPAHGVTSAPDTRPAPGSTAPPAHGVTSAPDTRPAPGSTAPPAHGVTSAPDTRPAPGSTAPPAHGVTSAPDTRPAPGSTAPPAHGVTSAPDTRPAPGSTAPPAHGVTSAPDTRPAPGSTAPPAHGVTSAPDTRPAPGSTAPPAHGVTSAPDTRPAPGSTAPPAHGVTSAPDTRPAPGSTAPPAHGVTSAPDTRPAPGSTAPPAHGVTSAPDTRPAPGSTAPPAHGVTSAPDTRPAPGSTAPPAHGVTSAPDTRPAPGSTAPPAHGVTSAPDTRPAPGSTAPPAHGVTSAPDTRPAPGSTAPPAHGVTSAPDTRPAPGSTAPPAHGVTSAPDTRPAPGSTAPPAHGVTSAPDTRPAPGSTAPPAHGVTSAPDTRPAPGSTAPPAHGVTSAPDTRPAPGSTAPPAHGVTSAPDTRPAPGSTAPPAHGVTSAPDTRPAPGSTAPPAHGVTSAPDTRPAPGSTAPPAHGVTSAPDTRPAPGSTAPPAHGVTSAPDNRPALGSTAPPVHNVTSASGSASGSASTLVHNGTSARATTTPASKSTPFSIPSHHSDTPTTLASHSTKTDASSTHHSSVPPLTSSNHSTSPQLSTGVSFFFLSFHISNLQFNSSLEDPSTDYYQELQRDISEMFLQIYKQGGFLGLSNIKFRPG

binding: binds
B1: murine anti-CA6 monoclonal antibody DS6 (antibody, mouse IgG1, V domains shown)
VH: QAYLQQSGAELVRSGASVKMSCKASGYTFTSYNMHWVKQTPGQGLEWIGYIYPGNGATNYNQKFKGKATLTADPSSSTAYMQISSLTSEDSAVYFCARGDSVPFAYWGQGTLVTVSA
VL: QIVLTQSPAIMSASPGEKVTITCSAHSSVSFMHWFQQKPGTSPKLWIYSTSSLASGVPARFGGSGSGTSYSLTISRMEAEDAATYYCQQRSSFPLTFGAGTKLELKR
